Results deposited as PubChem BioAssay AID504808 (Drosophila RNAi Screening Center, 2011)
Screen: 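Genes whose loss lifts activity of an E2F-responsive reporter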 (primary screen). Cell system: Drosophila S2 cells. Reagent: long dsRNA against Drosophila genes. Measurement: 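Dual luciferase plate measurements; E2F-specific signal taken as firefly over Renilla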. Reading the numbers: E2F firefly: higher = more E2F reporter activity; Renilla normaliser: higher = more normaliser reporter signal. Rule for the call: 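a knock-down counted as active when the firefly/Renilla E2F signal rose above 50%, a threshold chosen arbitrarily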.
The deposit covers about 21,000 reagents; this is a random part of those with a known target gene and a result. Of all reagents, 18 (0.084%) got an active call. 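Raw counts without plate normalisation, one of two replicates; the ratio scores behind the calls were not deposited.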 A plus sign joins genes that one reagent is predicted to hit. No sequences are given here. Not given: the amount of reagent, the time to read-out.

Gene | DRSC id | E2F firefly, rep 1 | Renilla normaliser, rep 1 | outcome
Spt (Spitting Image) | DRSC07123 | 1.39e5 | 4829 | inactive
bon (bonus) | DRSC16914 | 1.63e5 | 7310 | inactive
scrib (scribble) | DRSC13774 | 72395 | 2598 | inactive
scrib (scribble) | DRSC15809 | 1764 | 960 | inactive
scrib (scribble) | DRSC17051 | 1.28e5 | 7011 | inactive
fat-spondin | DRSC07617 | 78422 | 3832 | inactive
CG7881 | DRSC04898 | 1.05e5 | 4449 | inactive
Klp59D (Kinesin-like protein at 59D) | DRSC04118 | 1.11e5 | 4582 | inactive
mRpL37 (mitochondrial ribosomal protein L37) | DRSC16062 | 1.51e5 | 7139 | inactive
CG4820 | DRSC15654 | 1.46e5 | 6137 | inactive
hebe | DRSC05192 | 1.50e5 | 6474 | inactive
hebe | DRSC06605 | 73164 | 3847 | inactive
CG10395 | DRSC04840 | 79277 | 3769 | inactive
CG42710 | DRSC01034 | 1.34e5 | 6259 | inactive
Cpr23B (Cuticular protein 23B) | DRSC00555 | 1.54e5 | 5523 | inactive
CtsL4 (Cathepsin L4) | DRSC02849 | 1.42e5 | 5428 | inactive
CG31663 | DRSC00078 | 1.38e5 | 6076 | inactive
CG31663 | DRSC00389 | 83185 | 3585 | inactive
CG31663 | DRSC00390 | 56150 | 3721 | inactive
CG31663 | DRSC00393 | 1.64e5 | 7094 | inactive
Ca-alpha1T (Ca[2+]-channel protein alpha[[1]] subunit T) | DRSC17842 | 92023 | 5645 | inactive
Ca-alpha1T (Ca[2+]-channel protein alpha[[1]] subunit T) | DRSC18103 | 1.01e5 | 4988 | inactive
Ca-alpha1T (Ca[2+]-channel protein alpha[[1]] subunit T) | DRSC18356 | 1.11e5 | 5601 | inactive
Ca-alpha1T (Ca[2+]-channel protein alpha[[1]] subunit T) | DRSC18357 | 1.05e5 | 5299 | inactive
Nup160 (Nucleoporin 160kD) | DRSC02774 | 1.24e5 | 4542 | inactive
raskol | DRSC19202 | 90403 | 3479 | inactive
raskol | DRSC19731 | 1.64e5 | 6272 | inactive
raskol | DRSC19964 | 1.54e5 | 6067 | inactive
raskol | DRSC19967 | 93264 | 3636 | inactive
Sdc (Syndecan) | DRSC04654 | 97074 | 4484 | inactive
CG4617 | DRSC18377 | 7703 | 708 | inactive
CG31326 | DRSC16532 | 1.04e5 | 4987 | inactive
Lcp65Ab2 + Lcp65Ab1 | DRSC10340 | 94968 | 3825 | inactive
Lcp65Ab2 + Lcp65Ab1 | DRSC10343 | 1.01e5 | 3633 | inactive
COX7A (Cytochrome c oxidase subunit 7A) | DRSC16514 | 1.35e5 | 6364 | inactive
CG15408 | DRSC00423 | 1.57e5 | 5538 | inactive
AGO2 (Argonaute 2) | DRSC09999 | 1.26e5 | 9947 | inactive
AGO2 (Argonaute 2) | DRSC10847 | 76753 | 5254 | inactive
GluRIIE (Glutamate receptor IIE) | DRSC13431 | 86868 | 2515 | inactive
CG11695 | DRSC19416 | 87257 | 4063 | inactive
EAChm (Enhancer of Acetyltransferase Chameau) | DRSC10010 | 1.46e5 | 7783 | inactive
Mdr65 (Multi drug resistance 65) | DRSC11220 | 1.11e5 | 4604 | inactive
narya | DRSC19439 | 1.52e5 | 5244 | inactive
Prosbeta7 (Proteasome beta7 subunit) | DRSC12186 | 60716 | 3871 | inactive
NPFR (Neuropeptide F receptor) | DRSC12173 | 1.42e5 | 6146 | inactive
CtIP (CTBP-interacting protein) | DRSC11785 | 1.40e5 | 7201 | inactive
rost (rolling stone) | DRSC03603 | 76184 | 3282 | inactive
Inos (myo-inositol-1-phosphate synthase) | DRSC07655 | 1.49e5 | 5089 | inactive
st (scarlet) | DRSC11399 | 76001 | 3322 | inactive
CG17752 | DRSC15262 | 1.49e5 | 8074 | inactive
CG10418 | DRSC09720 | 1.16e5 | 6716 | inactive
disco-r (disco-related) | DRSC20173 | 1.53e5 | 6734 | inactive
disco-r (disco-related) | DRSC20174 | 1.64e5 | 6278 | inactive
CG31233 | DRSC15888 | 1.29e5 | 7185 | inactive
Capr (Caprin) | DRSC10346 | 1.75e5 | 7738 | inactive
CG15499 (retired record) | DRSC15041 | 1.36e5 | 6117 | inactive
CG31075 | DRSC16016 | 1.25e5 | 6605 | inactive
CG6908 | DRSC16131 | 1.36e5 | 7154 | inactive
BBS5 (Bardet-Biedl syndrome 5) | DRSC12168 | 1.49e5 | 7939 | inactive
Eph (Eph receptor tyrosine kinase) | DRSC17164 | 77561 | 3879 | inactive
Sod1 (Superoxide dismutase 1) | DRSC11286 | 98565 | 5956 | inactive
Syx13 (Syntaxin 13) | DRSC09836 | 1.17e5 | 7012 | inactive
CG7275 | DRSC10796 | 63477 | 3496 | inactive
CG8607 | DRSC11012 | 97171 | 4349 | inactive
Jon25Biii (Jonah 25Biii) | DRSC03115 | 1.58e5 | 5595 | inactive
Ddx56 (DEAD-box helicase 56) | DRSC20567 | 1.26e5 | 9307 | inactive
CG34460 | DRSC06974 | 1.58e5 | 5596 | inactive
CG8837 | DRSC00711 | 1.43e5 | 4876 | inactive
CG43901 | DRSC19397 | 1.16e5 | 5257 | inactive
CG43901 | DRSC19652 | 64330 | 3561 | inactive
trp (transient receptor potential) | DRSC17088 | 1.12e5 | 7201 | inactive
VhaM9.7-a (Vacuolar H[+] ATPase M9.7 subunit a) | DRSC08289 | 1.10e5 | 3989 | inactive
mRpL9 (mitochondrial ribosomal protein L9) | DRSC15678 | 1.16e5 | 5595 | inactive
Usp32 (Ubiquitin specific protease 32) | DRSC10979 | 1.21e5 | 6097 | inactive
CG34135 | DRSC12702 | 53973 | 4228 | inactive
CG6867 | DRSC20013 | 2.46e5 | 7983 | inactive
CG15185 | DRSC12565 | 1.37e5 | 6035 | inactive
Vha55 (Vacuolar H[+]-ATPase 55kD subunit) | DRSC16896 | 65886 | 3525 | inactive
CG8093 | DRSC07078 | 97604 | 4040 | inactive
CG7017 | DRSC10762 | 98968 | 4799 | inactive
CG15725 | DRSC19691 | 1.42e5 | 6683 | inactive
HnRNP-K (Heterogeneous nuclear ribonucleoprotein K) | DRSC07585 | 75187 | 3197 | inactive
CG13751 | DRSC06422 | 1.50e5 | 5068 | inactive
CG11403 | DRSC18532 | 2110 | 804 | inactive
CG17721 | DRSC15253 | 1.43e5 | 6130 | inactive
Tango14 (Transport and Golgi organization 14) | DRSC00667 | 1.58e5 | 5986 | inactive
CG32631 | DRSC19768 | 7176 | 636 | inactive
CG14115 | DRSC10118 | 1.26e5 | 8503 | inactive
Or46a (Odorant receptor 46a) | DRSC07489 | 1.50e5 | 4568 | inactive
Or46a (Odorant receptor 46a) | DRSC07490 | 1.77e5 | 5121 | inactive
CG12224 | DRSC14480 | 1.36e5 | 5919 | inactive
CG31827 + CG18478 | DRSC01958 | 1.01e5 | 4163 | inactive
Fs (Follistatin) | DRSC06258 | 73811 | 3710 | inactive
Fs (Follistatin) | DRSC06259 | 86693 | 3968 | inactive
CG8209 | DRSC10970 | 90261 | 3665 | inactive
nsr (novel spermatogenesis regulator) | DRSC04427 | 82318 | 3361 | inactive
esc (extra sexcombs) | DRSC03529 | 81643 | 3952 | inactive
CG1113 | DRSC12163 | 1.31e5 | 6460 | inactive
Gs2 (Glutamine synthetase 2) | DRSC20250 | 1.26e5 | 5906 | inactive
jumu (jumeau) | DRSC16651 | 89118 | 5133 | inactive
rn (rotund) | DRSC12500 | 75862 | 4858 | inactive
rn (rotund) | DRSC12543 | 1.46e5 | 6710 | inactive
rn (rotund) | DRSC12544 | 1.27e5 | 7754 | inactive
rn (rotund) | DRSC12546 | 1.29e5 | 6139 | inactive
Spindly | DRSC00430 | 1.61e5 | 5362 | inactive
Sry-beta (Serendipity beta) | DRSC16868 | 1608 | 908 | inactive
obst-H (obstructor-H) | DRSC10935 | 1.72e5 | 7147 | inactive
obst-H (obstructor-H) | DRSC10940 | 1.71e5 | 7248 | inactive
